Taken from: PubChem BioAssay AID1159584 (Peter MacCallum Cancer Centre, 2016)

- Test: 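Genes that CDH1-null MCF10A cells selectively depend on to survive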 (primary screen)
- System: human MCF10A breast epithelial cells, parental and CDH1-null
- Reagents: siRNA against human genes
- Measured: 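Cell viability by CellTiter-Glo ATP luminescence, each line scaled to the mean of mock wells across plates, then CDH1-null over parental ratio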
- Reading the numbers: CDH1-null / parental viability ratio: higher = CDH1-null cells survive relatively better than parental
The whole screen tested about 18,000 reagents; this is an unselected part. Not all columns of the deposit are shown. The record does not give: the amount of reagent, the time to read-out.

| target | CDH1-null / parental viability ratio |
| --- | --- |
| ZNF705A (zinc finger protein 705A) | 1 |
| GPN1 (GPN-loop GTPase 1) | 1.59 |
| GUCY2F (guanylate cyclase 2F, retinal) | 0.8 |
| RAB8B (RAB8B, member RAS oncogene family) | 0.97 |
| GALNT5 (polypeptide N-acetylgalactosaminyltransferase 5) | 0.78 |
| YME1L1 (YME1 like 1 ATPase) | 1.1 |
| PLEKHA4 (pleckstrin homology domain containing A4) | 1.12 |
| WDR13 (WD repeat domain 13) | 1.17 |
| OPN1MW (opsin 1, medium wave sensitive) | 1.39 |
| CDC42BPB (CDC42 binding protein kinase beta) | 0.88 |
| MGAT5 | 0.98 |
| MRPS33 (mitochondrial ribosomal protein S33) | 0.96 |
| SNUPN (snurportin 1) | 1 |
| NACC2 (NACC family member 2) | 0.98 |
| MSX1 (msh homeobox 1) | 1.01 |
| GULP1 (GULP PTB domain containing engulfment adaptor 1) | 0.86 |
| TGM3 (transglutaminase 3) | 1.27 |
| MBD5 (methyl-CpG binding domain protein 5) | 1.06 |
| ATF6 (activating transcription factor 6) | 0.98 |
| SPRY2 (sprouty RTK signaling antagonist 2) | 0.88 |
| IFI44 (interferon induced protein 44) | 0.82 |
| ZNF189 (zinc finger protein 189) | 1.15 |
| POFUT4 (protein O-fucosyltransferase 4) | 1.01 |
| OPN1SW (opsin 1, short wave sensitive) | 1.92 |
| CNR2 (cannabinoid receptor 2) | 1.37 |
| SLC13A1 | 1 |
| TMEM9 (transmembrane protein 9) | 1 |
| FEV (FEV transcription factor, ETS family member) | 1.2 |
| CLEC7A (C-type lectin domain containing 7A) | 0.86 |
| GAR1 (GAR1 ribonucleoprotein) | 1.02 |
| XG (Xg glycoprotein (Xg blood group)) | 0.93 |
| PDIA3 (protein disulfide isomerase family A member 3) | 1.62 |
| ZNF425 (zinc finger protein 425) | 0.66 |
| DCLK3 (doublecortin like kinase 3) | 0.81 |
| EPB41L1 (erythrocyte membrane protein band 4.1 like 1) | 1.01 |
| ZNF80 (zinc finger protein 80) | 1.4 |
| KIF3A (kinesin family member 3A) | 0.88 |
| FAM13B (family with sequence similarity 13 member B) | 1.07 |
| MRPS35 (mitochondrial ribosomal protein S35) | 1.05 |
| SLC16A6 | 1.06 |
| ADRA1D (adrenoceptor alpha 1D) | 1.44 |
| USH1C (USH1 protein network component harmonin) | 1.52 |
| HMBS (hydroxymethylbilane synthase) | 0.77 |
| ABL2 (ABL proto-oncogene 2, non-receptor tyrosine kinase) | 0.96 |
| RGS21 (regulator of G protein signaling 21) | 0.9 |
| CTXN3 (cortexin 3) | 0.96 |
| TMEM74 (transmembrane protein 74) | 1 |
| UBR4 (ubiquitin protein ligase E3 component n-recognin 4) | 1.09 |
| ADAMTS16 (ADAM metallopeptidase with thrombospondin type 1 motif 16) | 1.07 |
| CAPN7 (calpain 7) | 1.24 |
| NDUFS6 (NADH:ubiquinone oxidoreductase subunit S6) | 1.05 |
| ABLIM2 (actin binding LIM protein family member 2) | 1.1 |
| AWAT1 (acyl-CoA wax alcohol acyltransferase 1) | 1.06 |
| SF1 (splicing factor 1) | 1.12 |
| KRTAP1-3 (keratin associated protein 1-3) | 0.71 |
| POC1A (POC1 centriolar protein A) | 1.31 |
| MARCKSL1 (MARCKS like 1) | 0.82 |
| C9orf72 (C9orf72-SMCR8 complex subunit) | 1.13 |
| RGL4 (ral guanine nucleotide dissociation stimulator like 4) | 1.28 |
| RABGGTA (Rab geranylgeranyltransferase subunit alpha) | 1.42 |
| FBXL12 (F-box and leucine rich repeat protein 12) | 0.96 |
| GRIA3 (glutamate ionotropic receptor AMPA type subunit 3) | 1.22 |
| CERK (ceramide kinase) | 1.13 |
| LMNB1 (lamin B1) | 1.24 |
| OR6A2 (olfactory receptor family 6 subfamily A member 2) | 0.8 |
| LONP1 (lon peptidase 1, mitochondrial) | 1.12 |
| MOB4 (MOB family member 4, phocein) | 0.85 |
| NAA60 (N-alpha-acetyltransferase 60, NatF catalytic subunit) | 1.57 |
